The text below walks through data of PubChem BioAssay AID1487 (National Center for Advancing Translational Sciences (NCATS), 2009).

This experiment in a line: qHTS Assay for Modulators of Lamin A Splicing. The following applies: HeLa LMNA splicing GFP/RFP minigene ratio, 48 h. Summed up:
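Read-out is the ratio of GFP to DsRed2 object intensity, acquired by 488 nm laser-scanning cytometry on HeLa lamin A-EGFP minigene reporter cells. Compound incubation 48 hrs at 37 °C in Opti-MEM with 2% FBS; DMSO 0.5% final.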
On the technique in general: In qHTS, concentration-response curves come from the screen itself.

The mark [1] stands for this setting: measured here: GFP splicing reporter channel.
The mark [2] stands for this setting: measured here: RFP viability control channel.

The other results are listed elsewhere or left out. Further columns of the screen follow, without active or inactive calls. Most of these compounds were active or inconclusive in the main read-out, so they are no random draw. Potencies come from curve fits of mixed quality, noted in brackets.

Turning to `CC(C)C[C@H](N)c1nnc(S(=O)(=O)Cc2cccc(F)c2)o1`, the AC50 is 35.5 µM [falling, single point] under setting [1] and 35.5 µM [falling, single point] under setting [2]. For `CCc1cccc(C)c1NC(=O)NC1COc2ccccc2C1` (configuration not stated), the AC50 under setting [1] is 0.355 µM [rising, partial curve, poor fit]. Still for that read-out and setting: the value for `CCc1nnc(NC(=O)CSc2ncc(-c3ccccc3)n2C)s1` was 35.5 µM [rising, single point]. With `C=COC(=O)CSc1nc(-c2cccs2)ccc1C#N`, the AC50 under setting [2] was 35.5 µM [rising, single point]. On to `Fc1ccccc1Nc1nc2c(s1)CCc1ccccc1-2`, for which the AC50 by setting is: under setting [1], 0.0631 µM [rising, full curve, poor fit]; under setting [2], 0.158 µM [rising, full curve]. As to `COc1ccc(NC(=O)C(C)N2c3cccc4cccc(c34)S2(=O)=O)cc1` (configuration not stated), under setting [2], the AC50 was 17.8 µM [rising, single point].

For `O=C(Cc1ccc(Cl)cc1)NC(=S)Nc1ccccc1N1CCOCC1`, the AC50 is 20 µM [rising, single point] under setting [1] and 14.1 µM [rising, single point] under setting [2]. Turning to `Cc1nn(-c2ccccc2)nc1C(N)=O`, the AC50 under setting [2] is 0.0224 µM [falling, full curve, poor fit]. The same measure, in the same setting: in the case of `CN1C2=CC=CC=CC2=[N+](C)C12C=CC(=[N+]([O-])[O-])C=C2[N+](=O)[O-]` (configuration not stated) it was 35.5 µM [rising, single point]. In the case of `COc1ccccc1NC(c1cccnc1)c1ccc2cccnc2c1O` (configuration not stated), the AC50 is, setting by setting: under setting [1], 11.2 µM [falling, partial curve]; under setting [2], 11.2 µM [falling, partial curve]. Take `CN(C)C(=O)C12CCC(C)(c3nc4ccccc4nc31)C2(C)C` (configuration not stated): the half-maximal activity concentration (AC50) under setting [2] was 0.141 µM [falling, full curve, poor fit].

For `Cn1cc([N+](=O)[O-])c(C(=O)Nc2ccc(-c3nc4ccccc4[nH]3)cc2)n1`, under setting [2], the AC50 is 3.98 µM [rising, full curve]. Still for that read-out and setting: the value for `CC(C)CCn1c(O)c(N=Nc2ccccn2)c2ccccc21` was 15.8 µM [rising, partial curve, poor fit]. Take `Cn1c(=O)c(C(=O)COC(=O)c2cc(-c3ccccc3)nc3ccccc23)c(N)n(Cc2ccccc2)c1=O`: the AC50 is, setting by setting: under setting [1], 3.98 µM [rising, single point]; under setting [2], 2.82 µM [rising, full curve]. With `O=C(CCCSc1ccccc1)Nc1nc(-c2ccccn2)cs1`, the AC50 under setting [2] was 31.6 µM [rising, single point]. In the case of `CCOC(=O)C(C(=O)OCC)c1cc(Br)c2noc3c2c1C(=O)c1ccccc1-3`, the AC50 is 5.01 µM [falling, full curve] under setting [1] and 5.62 µM [falling, full curve] under setting [2].

A word on the AC50: it is the concentration giving half of the maximal activity seen.
